{"source": "PubChem BioAssay AID1671195 (Yale University, 2021)", "test": "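Regulators of LDL receptor activity judged by labelled LDL uptake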 (primary screen)", "system": "human Huh7 hepatoma cells", "knock-down reagent": "siRNA pool against human genes, 18 nM", "time to read-out": "about 2 to 2.5 days of knockdown, then 8 h LDL uptake", "challenge": "DiI-labelled LDL at 30 µg/ml for 8 h, in lipoprotein-deficient serum medium", "detection": "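Per-cell DiI-LDL intensity by automated imaging; well means scaled to the plate median and given as a robust z-score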", "scale": "robust z-score: higher = more LDL uptake after knockdown", "call rule": "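Active when two or more replicates show a robust z-score above 2 or below -2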", "note": "The whole screen tested about 22,000 reagents; this is a random part of them. About 1,510 of them (6.9%) were called active. 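Active includes knockdowns raising or lowering LDL uptake; positive z-scores mean more uptake, negative mean less.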 A number with no mark means an inactive call. Reagent sequences are not shown."}
{"gene": "LINC01624", "robust z-score, replicate 1": "-2.7 (active)", "robust z-score, replicate 2": -3.15, "robust z-score, replicate 3": -3.24}
{"gene": "RFWD3", "robust z-score, replicate 1": 0.0641, "robust z-score, replicate 2": 0.157, "robust z-score, replicate 3": 1.5}
{"gene": "BKGD", "robust z-score, replicate 1": -0.25, "robust z-score, replicate 2": -2.57, "robust z-score, replicate 3": -0.319}
{"gene": "HDHD2", "robust z-score, replicate 1": -0.695, "robust z-score, replicate 2": -1.04, "robust z-score, replicate 3": -0.321}
{"gene": "MSS51", "robust z-score, replicate 1": 1.26, "robust z-score, replicate 2": 1.15, "robust z-score, replicate 3": 0.776}
{"gene": "LINC00701", "robust z-score, replicate 1": 1.01, "robust z-score, replicate 2": -0.41, "robust z-score, replicate 3": -0.864}
{"gene": "HSPA8P6", "robust z-score, replicate 1": -1.38, "robust z-score, replicate 2": -1.51, "robust z-score, replicate 3": -1.05}
{"gene": "TRABD2A", "robust z-score, replicate 1": -0.549, "robust z-score, replicate 2": -0.847, "robust z-score, replicate 3": 0.0914}
{"gene": "CMBL", "robust z-score, replicate 1": -0.329, "robust z-score, replicate 2": -0.371, "robust z-score, replicate 3": 0.757}

Continued (2 carried over from the part before).
{"gene": "TRABD2A", "robust z-score, replicate 1": -0.549, "robust z-score, replicate 2": -0.847, "robust z-score, replicate 3": 0.0914}
{"gene": "CMBL", "robust z-score, replicate 1": -0.329, "robust z-score, replicate 2": -0.371, "robust z-score, replicate 3": 0.757}
{"gene": "DTYMK", "robust z-score, replicate 1": -0.477, "robust z-score, replicate 2": -0.428, "robust z-score, replicate 3": -0.623}
{"gene": "MNAT1", "robust z-score, replicate 1": -0.365, "robust z-score, replicate 2": -0.229, "robust z-score, replicate 3": -0.667}
{"gene": "UPRT", "robust z-score, replicate 1": 0.971, "robust z-score, replicate 2": 1.13, "robust z-score, replicate 3": 1.65}
{"gene": "GUCA2A", "robust z-score, replicate 1": -1.22, "robust z-score, replicate 2": 0.00619, "robust z-score, replicate 3": -0.726}
{"gene": "DGKI", "robust z-score, replicate 1": 0.0906, "robust z-score, replicate 2": -0.71, "robust z-score, replicate 3": -0.18}
{"gene": "PAK3", "robust z-score, replicate 1": -1.15, "robust z-score, replicate 2": -0.172, "robust z-score, replicate 3": -1.27}
{"gene": "LOC284901 (retired record)", "robust z-score, replicate 1": 0.765, "robust z-score, replicate 2": 0.828, "robust z-score, replicate 3": 0.221}
{"gene": "PLA2G2F", "robust z-score, replicate 1": "-1.72 (active)", "robust z-score, replicate 2": -2.1, "robust z-score, replicate 3": -1.85}
{"gene": "HJURP", "robust z-score, replicate 1": -0.684, "robust z-score, replicate 2": -0.845, "robust z-score, replicate 3": -0.356}
{"gene": "SPACA7", "robust z-score, replicate 1": -0.784, "robust z-score, replicate 2": -0.934, "robust z-score, replicate 3": -0.88}
{"gene": "TREM1", "robust z-score, replicate 1": -0.86, "robust z-score, replicate 2": -1.34, "robust z-score, replicate 3": -0.922}
{"gene": "RPL19P10", "robust z-score, replicate 1": 0.648, "robust z-score, replicate 2": 0.697, "robust z-score, replicate 3": 0.734}
{"gene": "GOLGA6A", "robust z-score, replicate 1": -0.511, "robust z-score, replicate 2": 0.591, "robust z-score, replicate 3": -0.316}
{"gene": "LGI2", "robust z-score, replicate 1": -0.0642, "robust z-score, replicate 2": -1.66, "robust z-score, replicate 3": 0.38}
{"gene": "RPL7L1P8", "robust z-score, replicate 1": 0.542, "robust z-score, replicate 2": 1.07, "robust z-score, replicate 3": 0.53}
